Results are given in words; binding and its absence hold for the method and conditions named. In cells and extracts the contact can be indirect. Some results given as binding are weak or reduced against the parent protein; the word gives no strength. Values belong to the binder of their own block, whether it stands above or below them.
What was measured:
[1] = target: GST-ErbB4 fusion protein (cytoplasmic domain of human ErbB4) (human) (UniProt Q15303); experiment: GST pull-down of in vitro translated [^35S]-bystin on glutathione beads, autoradiography (FIG. 7A)
[2] = target: ErbB4 (human) (UniProt Q15303); experiment: co-immunoprecipitation and confocal immunofluorescence co-localization in HT-H cells (FIG. 7C, FIG. 8)
[3] = target: T1, trophinin (human) (UniProt Q12816); experiment: as above
T1 sequence (looked up): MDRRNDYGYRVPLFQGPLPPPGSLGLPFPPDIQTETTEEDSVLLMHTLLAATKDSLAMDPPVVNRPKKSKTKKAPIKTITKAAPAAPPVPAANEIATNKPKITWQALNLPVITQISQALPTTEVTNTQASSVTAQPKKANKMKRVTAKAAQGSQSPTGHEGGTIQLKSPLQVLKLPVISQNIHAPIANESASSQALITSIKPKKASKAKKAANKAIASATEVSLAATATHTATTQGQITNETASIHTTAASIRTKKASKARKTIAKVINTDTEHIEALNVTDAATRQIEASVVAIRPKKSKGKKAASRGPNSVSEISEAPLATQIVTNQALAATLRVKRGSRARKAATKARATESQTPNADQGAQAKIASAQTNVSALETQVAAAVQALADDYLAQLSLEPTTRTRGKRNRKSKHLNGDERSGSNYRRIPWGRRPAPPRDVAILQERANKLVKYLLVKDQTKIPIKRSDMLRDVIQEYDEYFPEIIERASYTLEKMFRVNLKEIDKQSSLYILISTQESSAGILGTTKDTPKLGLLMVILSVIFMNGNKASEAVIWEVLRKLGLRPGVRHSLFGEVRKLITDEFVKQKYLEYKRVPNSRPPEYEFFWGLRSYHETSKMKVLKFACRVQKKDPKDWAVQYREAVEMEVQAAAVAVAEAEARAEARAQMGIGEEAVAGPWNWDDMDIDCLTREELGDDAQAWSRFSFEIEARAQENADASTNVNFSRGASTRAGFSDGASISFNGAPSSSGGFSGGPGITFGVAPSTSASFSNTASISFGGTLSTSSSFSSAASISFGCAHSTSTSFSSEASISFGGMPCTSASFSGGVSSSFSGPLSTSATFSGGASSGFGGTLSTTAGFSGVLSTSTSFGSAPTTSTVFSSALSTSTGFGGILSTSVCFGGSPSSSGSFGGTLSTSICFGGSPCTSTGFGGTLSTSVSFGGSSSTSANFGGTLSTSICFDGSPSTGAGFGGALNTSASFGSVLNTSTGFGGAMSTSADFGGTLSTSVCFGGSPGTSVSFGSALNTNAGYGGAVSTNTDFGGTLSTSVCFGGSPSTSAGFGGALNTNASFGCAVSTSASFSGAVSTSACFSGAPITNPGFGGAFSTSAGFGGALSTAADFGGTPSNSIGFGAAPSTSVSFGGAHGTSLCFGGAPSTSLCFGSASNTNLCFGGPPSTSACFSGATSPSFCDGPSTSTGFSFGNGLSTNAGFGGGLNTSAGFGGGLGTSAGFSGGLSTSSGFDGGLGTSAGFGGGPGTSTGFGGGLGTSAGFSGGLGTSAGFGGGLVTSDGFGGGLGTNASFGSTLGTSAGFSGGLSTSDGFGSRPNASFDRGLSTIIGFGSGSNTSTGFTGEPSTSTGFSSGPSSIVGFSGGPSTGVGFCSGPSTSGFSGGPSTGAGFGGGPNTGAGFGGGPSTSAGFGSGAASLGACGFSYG

Sequences of proteins named here, by UniProt entry; tags and fusion partners are left off. A change or cut given only in a name is not applied to a line headed by its entry. Residues count along the entry.
UniProt Q15303: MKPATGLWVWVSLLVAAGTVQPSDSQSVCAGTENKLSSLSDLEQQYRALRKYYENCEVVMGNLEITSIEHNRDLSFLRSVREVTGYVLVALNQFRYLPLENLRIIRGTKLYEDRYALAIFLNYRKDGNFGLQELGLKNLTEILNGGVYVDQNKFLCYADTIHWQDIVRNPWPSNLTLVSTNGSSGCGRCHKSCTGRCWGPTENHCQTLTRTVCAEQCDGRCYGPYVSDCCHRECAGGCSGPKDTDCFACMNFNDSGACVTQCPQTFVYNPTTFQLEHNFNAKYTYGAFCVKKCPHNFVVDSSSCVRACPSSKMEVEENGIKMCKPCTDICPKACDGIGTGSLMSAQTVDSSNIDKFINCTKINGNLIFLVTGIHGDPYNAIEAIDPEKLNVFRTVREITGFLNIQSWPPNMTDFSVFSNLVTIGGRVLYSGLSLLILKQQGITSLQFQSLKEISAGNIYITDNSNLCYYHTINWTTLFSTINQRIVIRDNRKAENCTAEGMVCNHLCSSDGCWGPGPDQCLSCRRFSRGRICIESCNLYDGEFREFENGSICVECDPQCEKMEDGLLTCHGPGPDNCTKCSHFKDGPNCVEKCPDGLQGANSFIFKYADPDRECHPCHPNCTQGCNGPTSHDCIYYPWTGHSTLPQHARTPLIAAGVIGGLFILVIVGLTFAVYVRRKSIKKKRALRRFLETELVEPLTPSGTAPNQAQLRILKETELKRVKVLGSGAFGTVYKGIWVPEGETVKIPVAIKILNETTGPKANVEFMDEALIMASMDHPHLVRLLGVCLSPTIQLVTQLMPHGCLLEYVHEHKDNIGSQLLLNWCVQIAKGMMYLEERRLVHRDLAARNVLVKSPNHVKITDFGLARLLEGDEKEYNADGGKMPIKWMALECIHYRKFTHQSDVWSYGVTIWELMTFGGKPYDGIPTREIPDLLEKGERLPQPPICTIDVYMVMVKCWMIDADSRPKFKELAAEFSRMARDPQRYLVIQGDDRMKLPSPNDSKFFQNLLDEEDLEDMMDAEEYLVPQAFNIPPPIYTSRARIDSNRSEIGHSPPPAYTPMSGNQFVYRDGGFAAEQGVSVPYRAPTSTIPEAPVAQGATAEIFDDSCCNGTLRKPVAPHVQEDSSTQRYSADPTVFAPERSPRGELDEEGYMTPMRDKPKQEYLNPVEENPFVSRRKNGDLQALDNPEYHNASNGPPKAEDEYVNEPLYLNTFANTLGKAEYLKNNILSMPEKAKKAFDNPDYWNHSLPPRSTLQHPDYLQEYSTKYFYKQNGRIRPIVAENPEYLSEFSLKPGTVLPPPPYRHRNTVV
ErbB4: residues 26-1308 of Q15303
GST-ErbB4 fusion protein (cytoplasmic domain of human ErbB4): residues 676-1308 of Q15303

[4] = target: ErbB4 (human) (UniProt Q15303); experiment: co-immunoprecipitation from HT-H cells with anti-ErbB4 antibody, Western blot (FIG. 7C)
[5] = target: ErbB4 (human) (UniProt Q15303); experiment: co-immunoprecipitation from HT-H cell lysates with anti-ErbB4 antibody, Western blot (FIG. 7C)

binding [1]: binds
B1: [^35S]-bystin (protein, UniProt Q13895 1-437, looked up)
chain: MPKFKAARGVGGQEKHAPLADQILAGNAVRAGVREKRRGRGTGEAEEEYVGPRLSRRILQQARQQQEELEAEHGTGDKPAAPRERTTRLGPRMPQDGSDDEDEEWPTLEKAATMTAAGHHAEVVVDPEDERAIEMFMNKNPPARRTLADIIMEKLTEKQTEVETVMSEVSGFPMPQLDPRVLEVYRGVREVLSKYRSGKLPKAFKIIPALSNWEQILYVTEPEAWTAAAMYQATRIFASNLKERMAQRFYNLVLLPRVRDDVAEYKRLNFHLYMALKKALFKPGAWFKGILIPLCESGTCTLREAIIVGSIITKCSIPVLHSSAAMLKIAEMEYSGANSIFLRLLLDKKYALPYRVLDALVFHFLGFRTEKRELPVLWHQCLLTLVQRYKADLATDQKEALLELLRLQPHPQLSPEIRRELQSAVPRDVEDVPITVE
modifications: [^35S]-methionine labeled

binding [2]: binds | binding [3]: binds | binding [4]: binds | binding [5]: binds
B2: bystin (protein, human, UniProt Q13895 1-437, looked up)
chain: B1 chain
